Literature values as cited in US9023408B2, “Composition and method for control of diabetes” (Meyer Nutriceuticals LLC, priority 2009, dated 2015).
For at least one compound, name, drawing or mass did not settle the structure.

Test system: glucosidases
Settings: cited from earlier work
[1] = normal subjects, 50 or 100 g sucrose drink or 61 g carbohydrate meal

**Q.** Which “effect on GLP-1 and PYY secretion” value [1] does the source give for `C[C@H]1O[C@H](O[C@H]2[C@H](O)[C@@H](O)[C@@H](O[C@H]3[C@H](O)[C@@H](O)C(O)O[C@@H]3CO)O[C@@H]2CO)[C@H](O)[C@@H](O)[C@@H]1N[C@H]1C=C(CO)[C@@H](O)[C@H](O)[C@H]1O` (stereo partly drawn) [Acarbose] here?
**A.** The value was “stimulate secretion of both GLP-1 and PYY”.

**Q.** What about the “effect on gastric emptying” value [1] of the same molecule?
**A.** The value was “slow gastric emptying”.

**Q.** What about the “effectiveness in slowing gastric emptying or raising post prandial GLP-1” value (type 2 diabetics, meals with lower carbohydrate) of the same molecule?
**A.** The value was “much less effective”.
